{"sequences": {"note": "Chains of the proteins cited; added tags and fusions are not shown. Lines headed by an entry give the natural chain unless they say otherwise; changes in a name come on top.", "UniProt P46734": "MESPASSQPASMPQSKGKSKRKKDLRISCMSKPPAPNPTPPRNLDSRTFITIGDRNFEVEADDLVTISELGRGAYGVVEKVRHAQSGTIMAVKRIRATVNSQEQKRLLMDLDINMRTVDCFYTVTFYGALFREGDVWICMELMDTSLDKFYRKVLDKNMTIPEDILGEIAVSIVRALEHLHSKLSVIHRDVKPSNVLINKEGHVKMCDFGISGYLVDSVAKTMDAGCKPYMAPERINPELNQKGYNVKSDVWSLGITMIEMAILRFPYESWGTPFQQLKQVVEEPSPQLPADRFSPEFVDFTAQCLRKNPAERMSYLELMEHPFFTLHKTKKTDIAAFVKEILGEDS", "UniProt O60307": "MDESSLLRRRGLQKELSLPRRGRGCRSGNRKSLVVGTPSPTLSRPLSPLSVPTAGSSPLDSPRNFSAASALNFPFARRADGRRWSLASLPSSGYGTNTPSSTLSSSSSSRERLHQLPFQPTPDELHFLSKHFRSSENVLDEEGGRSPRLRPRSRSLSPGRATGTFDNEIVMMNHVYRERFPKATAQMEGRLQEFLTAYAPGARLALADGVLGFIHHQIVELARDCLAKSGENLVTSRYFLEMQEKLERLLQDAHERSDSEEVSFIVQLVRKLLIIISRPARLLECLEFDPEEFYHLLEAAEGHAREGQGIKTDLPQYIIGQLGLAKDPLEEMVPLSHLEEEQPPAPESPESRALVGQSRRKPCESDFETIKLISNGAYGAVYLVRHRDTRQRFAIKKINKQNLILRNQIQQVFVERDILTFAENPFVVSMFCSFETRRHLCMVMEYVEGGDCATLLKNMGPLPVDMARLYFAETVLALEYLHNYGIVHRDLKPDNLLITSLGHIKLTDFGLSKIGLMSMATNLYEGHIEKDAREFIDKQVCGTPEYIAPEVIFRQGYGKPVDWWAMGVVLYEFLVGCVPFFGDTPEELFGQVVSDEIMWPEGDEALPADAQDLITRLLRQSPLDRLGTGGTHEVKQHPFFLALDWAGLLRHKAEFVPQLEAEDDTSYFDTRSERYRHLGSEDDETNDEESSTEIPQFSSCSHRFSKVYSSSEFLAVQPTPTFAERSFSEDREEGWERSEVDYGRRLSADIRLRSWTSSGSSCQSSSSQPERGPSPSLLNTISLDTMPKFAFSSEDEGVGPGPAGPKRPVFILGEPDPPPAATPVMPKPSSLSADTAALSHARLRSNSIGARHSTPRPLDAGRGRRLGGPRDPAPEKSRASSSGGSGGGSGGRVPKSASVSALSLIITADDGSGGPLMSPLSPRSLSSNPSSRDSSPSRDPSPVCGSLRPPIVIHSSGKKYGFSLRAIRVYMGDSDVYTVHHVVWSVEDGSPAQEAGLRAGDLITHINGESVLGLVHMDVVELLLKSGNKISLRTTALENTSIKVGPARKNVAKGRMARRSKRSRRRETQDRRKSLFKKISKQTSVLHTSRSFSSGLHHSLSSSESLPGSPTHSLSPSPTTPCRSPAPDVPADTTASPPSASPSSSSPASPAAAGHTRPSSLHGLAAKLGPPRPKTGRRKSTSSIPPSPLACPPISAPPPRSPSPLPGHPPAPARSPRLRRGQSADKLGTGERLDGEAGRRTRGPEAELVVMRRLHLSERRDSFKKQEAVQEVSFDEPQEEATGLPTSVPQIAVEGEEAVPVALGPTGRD", "UniProt Q9NTJ4": "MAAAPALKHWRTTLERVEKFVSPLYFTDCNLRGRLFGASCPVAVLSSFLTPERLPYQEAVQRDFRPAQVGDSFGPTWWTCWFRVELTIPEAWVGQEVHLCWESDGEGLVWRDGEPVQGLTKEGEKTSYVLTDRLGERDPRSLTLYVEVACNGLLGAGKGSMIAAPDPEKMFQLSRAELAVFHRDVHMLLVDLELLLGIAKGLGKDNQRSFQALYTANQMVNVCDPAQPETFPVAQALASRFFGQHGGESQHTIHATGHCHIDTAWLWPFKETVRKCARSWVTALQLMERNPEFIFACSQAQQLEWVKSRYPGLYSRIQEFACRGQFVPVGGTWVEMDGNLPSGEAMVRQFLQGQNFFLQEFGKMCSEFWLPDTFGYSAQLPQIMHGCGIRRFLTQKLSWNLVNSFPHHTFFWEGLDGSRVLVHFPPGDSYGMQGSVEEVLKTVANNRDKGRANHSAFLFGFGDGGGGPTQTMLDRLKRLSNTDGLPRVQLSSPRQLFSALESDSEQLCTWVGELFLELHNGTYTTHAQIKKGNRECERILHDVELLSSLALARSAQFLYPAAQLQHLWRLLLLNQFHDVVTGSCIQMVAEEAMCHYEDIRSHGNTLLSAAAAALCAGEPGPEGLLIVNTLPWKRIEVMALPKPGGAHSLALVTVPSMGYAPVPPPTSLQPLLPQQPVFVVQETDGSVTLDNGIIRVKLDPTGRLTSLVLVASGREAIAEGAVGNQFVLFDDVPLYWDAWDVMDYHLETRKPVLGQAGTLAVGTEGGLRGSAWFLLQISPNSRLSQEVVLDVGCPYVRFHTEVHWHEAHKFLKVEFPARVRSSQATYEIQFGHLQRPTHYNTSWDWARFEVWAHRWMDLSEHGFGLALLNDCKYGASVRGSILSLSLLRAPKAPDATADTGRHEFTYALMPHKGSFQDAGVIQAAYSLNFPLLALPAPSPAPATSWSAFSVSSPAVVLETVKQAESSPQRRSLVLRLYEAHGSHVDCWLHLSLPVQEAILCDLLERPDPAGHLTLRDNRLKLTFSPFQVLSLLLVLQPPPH"}, "source": "the supplement of paper PMC12067093", "about": "“Discovery and optimisation of a covalent ligand for TRIM25 and its application to targeted protein ubiquitination” (Chemical Science, 2025)", "compound": "CC1Cc2ccccc2N1C(=O)C1CCCN(C1)C(=O)CCl (mixture of isomers) [TRIM25 ligand 11 (diastereomer mixture)]", "test": "probe-labelled cysteine peptide fold change vs DMSO (competition) (log2 fold change); higher = less target engagement (more negative = stronger competition)", "conditions": "THP-1, incubation time: 4 h", "note": "Some of the results follow.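 Also: competitive chemoproteomic profiling in live THP-1 cells with an iodoacetamide desthiobiotin (IA-DTB) probe, comparing probe-labelled peptide intensities in compound-treated cells against DMSO-treated controls.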"}
{"target": "MAP2K3_P46734_29_ISCMSKPPAPNPTPPR (UniProt P46734)", "values": [{"measurement": "probe-labelled cysteine peptide fold change", "setting": "10 µM", "result": -0.0609}, {"measurement": "probe-labelled cysteine peptide fold change", "setting": "50 µM", "result": -0.253}]}
{"target": "MAST3_O60307_285_LLECLEFDPEEFYHLLEAAEGHAR (UniProt O60307)", "values": [{"measurement": "probe-labelled cysteine peptide fold change", "setting": "10 µM", "result": 0.418}, {"measurement": "probe-labelled cysteine peptide fold change", "setting": "50 µM", "result": 0.335}]}
{"target": "MAN2C1_Q9NTJ4_871_WMDLSEHGFGLALLNDCK (UniProt Q9NTJ4)", "values": [{"measurement": "probe-labelled cysteine peptide fold change", "setting": "10 µM", "result": 0.38}, {"measurement": "probe-labelled cysteine peptide fold change", "setting": "50 µM", "result": 0.327}]}
